The results in this text go back to doi:10.1101/2025.06.18.657655, “Fibulin-4 is highly expressed in metastatic breast cancer and can serve as a target of peptide-based imaging probes and experimental therapeutics” (bioRxiv, 2025).

Protein sequences, listed by entry. Tags and fused reporters are not part of them. Residues count along the entry.
UniProt O95967, residues 24-443: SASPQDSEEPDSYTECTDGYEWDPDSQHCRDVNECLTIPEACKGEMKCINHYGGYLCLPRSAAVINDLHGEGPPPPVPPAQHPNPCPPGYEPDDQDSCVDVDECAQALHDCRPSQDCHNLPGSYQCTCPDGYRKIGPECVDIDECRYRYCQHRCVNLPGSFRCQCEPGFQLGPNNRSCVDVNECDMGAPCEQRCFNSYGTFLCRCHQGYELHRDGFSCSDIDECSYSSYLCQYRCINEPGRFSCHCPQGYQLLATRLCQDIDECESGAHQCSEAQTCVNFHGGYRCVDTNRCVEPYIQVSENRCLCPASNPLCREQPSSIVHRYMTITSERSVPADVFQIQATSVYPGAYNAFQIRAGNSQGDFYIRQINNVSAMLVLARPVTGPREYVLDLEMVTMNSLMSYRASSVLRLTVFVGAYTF
UniProt Q9WVJ9, residues 28-443: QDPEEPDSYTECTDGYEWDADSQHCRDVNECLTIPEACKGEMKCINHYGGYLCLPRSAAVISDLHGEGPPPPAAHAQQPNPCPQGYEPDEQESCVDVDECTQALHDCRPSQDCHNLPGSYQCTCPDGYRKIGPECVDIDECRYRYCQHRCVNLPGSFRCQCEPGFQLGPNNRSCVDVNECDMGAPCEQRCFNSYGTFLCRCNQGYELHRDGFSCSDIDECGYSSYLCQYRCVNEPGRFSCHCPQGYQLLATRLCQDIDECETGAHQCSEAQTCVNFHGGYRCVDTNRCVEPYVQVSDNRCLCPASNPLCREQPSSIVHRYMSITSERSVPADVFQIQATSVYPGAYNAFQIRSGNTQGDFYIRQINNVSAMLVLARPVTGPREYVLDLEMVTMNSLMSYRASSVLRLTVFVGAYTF

The target in test [1] is T1, biotinylated BLMP6, cyclic peptide ….
T1 sequence (peptide, biotin on the N-terminus; cysteine-cyclized): CRAGVGRGC
Nature of the test: pull-down; biotinylated BLMP6 immobilized on streptavidin-coated beads, incubated with proteins extracted from 4T1 cells; washing, elution, immunoblot with anti-FBLN4 antibodies; only the target purified.

Test [2] addresses T2, cyclic peptide … (control).
T2 sequence (peptide, cyclic): CKGGRAKDC
Nature of the test: BLI; Octet RED96; peptides loaded on streptavidin biosensors at 20 ug/ml in 1x kinetic buffer for 5 min; Fibulin-4 protein 0 to 400 nM, 300 sec association, 300 sec dissociation; 1:1 binding model; both purified. (In general: Biolayer interferometry detects binding as a change in optical thickness at a sensor tip.)

Test [3] deals with T1, biotinylated BLMP6, cyclic peptide …. Described as above.
The target of test [4] is FBLN4 ectopically expressed in HEK293 cells (UniProt O95967). Nature of the test: binding of fluorophore-labelled peptide to cells; AZDye555-BLMP6 on HEK293 cells ectopically expressing FBLN4, against non-transfected control cells; only the binder purified.

Results are given in words; binding and its absence hold for the method and conditions named. For some of these results: Binding seen in cells or lysates may run through a third protein. Some binding calls cover weakened binding; strength is not graded here.

For “FBLN4 of mouse 4T1 cancer cells (from UniProt Q9WVJ9 28-443)”, in test [1], the binding entry is listed as “binds”.

Regarding “Fibulin-4 protein (Abcam, 182808) (from UniProt O95967 24-443)”, the results for the binding entry in test [2] and in test [3] were “no binding (tested: 0 to 400 nM)” and “binds”, respectively. As for CRAGVGRGC (AZDye555 on the N-terminus; cysteine-cyclized) [AZDye555-BLMP6], the binding result in test [4] is “binds”.
